From patent US5969210 come the findings set out here.

The chains behind the UniProt entries cited, without tags or fusion partners. Where a name states a change or a piece, a line headed by the entry shows the natural chain unless it says otherwise.
UniProt P22415: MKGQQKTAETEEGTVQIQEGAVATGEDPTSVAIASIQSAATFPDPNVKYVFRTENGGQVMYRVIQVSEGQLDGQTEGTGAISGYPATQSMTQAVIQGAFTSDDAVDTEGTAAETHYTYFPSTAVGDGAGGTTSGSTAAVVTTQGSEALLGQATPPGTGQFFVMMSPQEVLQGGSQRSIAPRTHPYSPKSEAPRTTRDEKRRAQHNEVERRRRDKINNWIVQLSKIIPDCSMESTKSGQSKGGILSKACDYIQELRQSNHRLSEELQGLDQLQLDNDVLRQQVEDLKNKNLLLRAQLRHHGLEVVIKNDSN

For data set [1], the system named is BETA-2/E47 (E2A) heterodimer (HIT-T15 nuclear extract). Put plainly: competition with a labelled probe. To be noted: 100-fold excess mutant does not compete; protein in an extract; variant of B element WT.
Data set [2] has the same test system. The data set is described as follows: EMSA. As to conditions: slowest complex blocked by BETA-2 or E2A antisera; protein in an extract; label: 32P. In general terms: A gel shift assay detects complexes by their altered migration in electrophoresis.
The target in another data set is T1, HNF-3alpha (recombinant) (UniProt P23512).
T1 sequence (looked up, limits assumed): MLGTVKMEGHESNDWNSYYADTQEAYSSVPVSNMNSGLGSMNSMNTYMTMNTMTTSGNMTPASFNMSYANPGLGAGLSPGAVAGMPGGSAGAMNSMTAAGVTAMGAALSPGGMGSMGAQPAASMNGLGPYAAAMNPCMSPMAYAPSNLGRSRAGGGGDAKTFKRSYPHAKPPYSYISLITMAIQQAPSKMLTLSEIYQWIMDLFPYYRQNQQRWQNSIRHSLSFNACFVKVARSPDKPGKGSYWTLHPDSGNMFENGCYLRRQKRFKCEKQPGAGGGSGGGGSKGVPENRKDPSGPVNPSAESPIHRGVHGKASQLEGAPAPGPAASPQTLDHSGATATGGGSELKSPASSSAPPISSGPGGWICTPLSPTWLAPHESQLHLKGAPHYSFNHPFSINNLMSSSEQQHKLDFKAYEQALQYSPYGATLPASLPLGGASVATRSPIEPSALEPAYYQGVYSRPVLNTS
The data set is described as follows: footprint. To be noted: hypersensitive site interrupting H element footprint; SEQ:2 is the full enhancer, probe is a sub-range; purified recombinant protein; protein details: gift of K. Zaret; label: 32P.

A further data set has as its target USF-1 (recombinant) (UniProt P22415). Put plainly: footprint. To be noted: DNase I protection coincides with HIT extract footprint; SEQ:1 is the full 5' flank, probe is a sub-range; purified recombinant protein; label: 32P.

For some of these results: Where cells or extracts were used, other partners may take part. For some of these results: Negatives hold for the conditions tested. For some of these results: The exact form of at least one protein or probe is not confirmed. For some of these results: Tags and fusion partners may be left off the protein sequences shown.

With “TCAGTGAAAGACGGAGTCCT (double strand) [B element MT]”, the binding result in data set [1] is “no binding”.
As to “TCAGTGACAGATGGAGTCCT (double strand) [B element WT]”, the binding result in data set [2] is “binds”.
Turning to “TCTAGAGAGTTCTCCTGTTCGCTAGATAAGAAAGCCTGTTCTGCCATCCCAGCAGGCATAGGCTGTTTAAGTTACTAGATAACAGAGTTGTTATTGATTCTATTATTATTATTTTTTCTACTCTTCCTGATTCCCTGAAGTCCAAGGGAAGTTTTGTCAACTAGGAATGATTTTTGTTTAAAAAAAAAAAAAAAAGGCTCCTTGTTGTGTCTTAGCTGGTCAGTGACAGATGGAGTCCTGAGTTTCCTAGGAGCCCTTTACTCAGGAGTGGGAGAACAGAAAGTAAATAAGCGCTCTTAGTCATCTGCTTTCTCAGAGCAGCGTTGGGCCCCAGCACTTGGAAAGCGAATGCTGGCTCCTCCTGGACTCCCCCGTCAGCCTGATGTTGTTAACCCGTTTAACATTCCCTTATCACATGCTCATTGTGGGCAGAATTAAGTGGAATTAGCTAACAAATTATATAAAATTCATTTACCTTTCAAGGAAGCTG (double strand) [STF-1 enhancer fragment -6100 to -5870]”, the binding result with HNF-3alpha (recombinant) was “binds”.
With “TTAAGCTCTAATGGAGCGGTTTTGTAACGGAGTAAAGGTTCTGATATTTTTGCGCTCCCCGGTTTGGAGAGCTCCGCAGCAGGACAGGAGAGATCAGCCTGCTGAGAGAGAAAATTGAAACAAGTGCAGGTGTTCGCGGGCCTGGGCCTCCTTCTTAAGGCAGGGCCAGGCCAATGGTGGCCCCAGGCTGAACCACGTGGGGTGCCTCAGAGCCTATGGCACGGCGACCGGCTTCTCTGTCTCTCGCCAGCCTGTGGTTCCCCGGGAGAGCAGTGGAGAACTGTCAAAGCGATCTGGGGTGGCGCTGAGAGTCCGTGAGCTGCCAGCGCCTTAAGGCCTGGCTTGTAGCTCCCTACCCCGGGCTGCCGGCCCCGAAGTGCCGGCTGCCACCATGAATAGTGAG (double strand) [STF-1 promoter fragment -182 to -37]”, the binding result with USF-1 (recombinant) is “binds”.
